Assay results reported in publication PMC8242032, “Non-canonical function of DGCR8 in DNA double-strand break repair signaling and tumor radioresistance” (Nature Communications, 2021).
No constants are given. Whether binding was seen depends on the method and setting. Binding seen in cells or lysates may run through a third protein. Some binding calls cover weakened binding; strength is not graded here. Tags and fused reporters may be left off the sequences shown.

Tests used:
Test in all cases: pull-down; SFB-tagged DUBs individually co-transfected with MYC-DGCR8 into HEK293T cells; pulldown with S-protein beads, 4 °C, 2 h; immunoblotting for FLAG and MYC; screen and confirmatory pulldown
SFB-USP39 (human) = molecular target: T1, SFB-USP39 (human) (UniProt Q53GS9)
T1 sequence: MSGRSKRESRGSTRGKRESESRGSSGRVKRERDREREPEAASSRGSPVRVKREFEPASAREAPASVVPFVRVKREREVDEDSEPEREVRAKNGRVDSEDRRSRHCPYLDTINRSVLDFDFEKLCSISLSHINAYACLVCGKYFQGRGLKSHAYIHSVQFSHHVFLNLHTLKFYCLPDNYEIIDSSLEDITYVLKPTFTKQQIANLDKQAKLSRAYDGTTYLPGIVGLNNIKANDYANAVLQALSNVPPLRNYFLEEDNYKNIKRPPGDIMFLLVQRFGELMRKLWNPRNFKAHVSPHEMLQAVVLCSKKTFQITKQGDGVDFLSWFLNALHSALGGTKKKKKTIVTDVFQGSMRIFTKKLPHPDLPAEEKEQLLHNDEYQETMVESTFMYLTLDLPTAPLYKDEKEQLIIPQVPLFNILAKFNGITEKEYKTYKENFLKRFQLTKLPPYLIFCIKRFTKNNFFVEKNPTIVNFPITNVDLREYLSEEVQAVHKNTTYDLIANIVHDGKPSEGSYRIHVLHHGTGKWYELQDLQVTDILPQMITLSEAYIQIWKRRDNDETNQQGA

SFB-USP43 (human) = molecular target: T2, SFB-USP43 (human) (UniProt Q70EL4)
T2 sequence: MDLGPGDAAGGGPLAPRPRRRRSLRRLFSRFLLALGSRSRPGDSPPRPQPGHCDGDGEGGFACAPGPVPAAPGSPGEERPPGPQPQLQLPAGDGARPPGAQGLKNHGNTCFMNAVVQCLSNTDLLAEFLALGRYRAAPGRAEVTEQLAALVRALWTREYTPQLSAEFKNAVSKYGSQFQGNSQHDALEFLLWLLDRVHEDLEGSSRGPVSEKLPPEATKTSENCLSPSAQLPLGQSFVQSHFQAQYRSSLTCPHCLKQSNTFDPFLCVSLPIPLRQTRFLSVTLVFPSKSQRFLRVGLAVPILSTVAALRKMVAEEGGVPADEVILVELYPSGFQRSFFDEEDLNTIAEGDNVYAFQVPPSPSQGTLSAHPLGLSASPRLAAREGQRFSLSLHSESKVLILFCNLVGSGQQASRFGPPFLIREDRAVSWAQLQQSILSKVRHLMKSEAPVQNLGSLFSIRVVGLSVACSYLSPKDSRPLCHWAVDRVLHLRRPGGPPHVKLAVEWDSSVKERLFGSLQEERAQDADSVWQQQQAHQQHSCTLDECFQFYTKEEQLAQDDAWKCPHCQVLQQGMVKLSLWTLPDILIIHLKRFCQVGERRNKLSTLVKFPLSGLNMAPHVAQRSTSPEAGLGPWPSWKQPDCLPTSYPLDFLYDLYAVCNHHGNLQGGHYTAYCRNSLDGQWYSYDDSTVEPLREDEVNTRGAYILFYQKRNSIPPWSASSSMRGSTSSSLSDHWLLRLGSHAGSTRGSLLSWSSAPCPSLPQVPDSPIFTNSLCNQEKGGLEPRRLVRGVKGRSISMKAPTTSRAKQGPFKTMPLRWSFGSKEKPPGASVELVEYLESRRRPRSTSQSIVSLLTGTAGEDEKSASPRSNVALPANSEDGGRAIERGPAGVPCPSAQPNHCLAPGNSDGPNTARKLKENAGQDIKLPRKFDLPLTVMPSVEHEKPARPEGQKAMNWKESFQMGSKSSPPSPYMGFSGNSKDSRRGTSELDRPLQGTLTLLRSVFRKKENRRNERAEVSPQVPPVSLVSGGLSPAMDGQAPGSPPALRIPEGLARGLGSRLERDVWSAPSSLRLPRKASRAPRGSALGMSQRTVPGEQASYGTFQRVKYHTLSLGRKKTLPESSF

SFB-USP49 (human) = molecular target: T3, SFB-USP49 (human) (UniProt Q70CQ1)
T3 sequence: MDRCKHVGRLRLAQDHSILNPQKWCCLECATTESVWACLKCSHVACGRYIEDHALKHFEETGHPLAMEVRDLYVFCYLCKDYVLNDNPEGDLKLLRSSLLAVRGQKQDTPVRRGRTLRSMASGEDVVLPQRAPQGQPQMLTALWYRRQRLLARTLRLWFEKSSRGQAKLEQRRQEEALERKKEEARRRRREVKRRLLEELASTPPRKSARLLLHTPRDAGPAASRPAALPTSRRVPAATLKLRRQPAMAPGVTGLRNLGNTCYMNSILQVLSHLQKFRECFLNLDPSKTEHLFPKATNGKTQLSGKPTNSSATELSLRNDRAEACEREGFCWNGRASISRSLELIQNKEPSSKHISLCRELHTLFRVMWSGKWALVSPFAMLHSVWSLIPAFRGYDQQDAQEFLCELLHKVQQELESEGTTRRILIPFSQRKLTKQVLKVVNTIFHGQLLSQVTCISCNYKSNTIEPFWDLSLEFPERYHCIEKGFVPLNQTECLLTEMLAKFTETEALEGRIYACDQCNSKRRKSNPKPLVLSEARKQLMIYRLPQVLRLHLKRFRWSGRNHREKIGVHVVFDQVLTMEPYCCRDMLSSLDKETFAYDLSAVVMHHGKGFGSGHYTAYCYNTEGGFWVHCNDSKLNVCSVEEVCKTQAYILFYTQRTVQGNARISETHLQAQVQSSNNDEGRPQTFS

Measured: binding

B1: MYC-DGCR8 (wild-type, full-length) (protein, UniProt Q8WYQ5 1-773)
chain: METDESPSPLPCGPAGEAVMESRARPFQALPREQSPPPPLQTSSGAEVMDVGSGGDGQSELPAEDPFNFYGASLLSKGSFSKGRLLIDPNCSGHSPRTARHAPAVRKFSPDLKLLKDVKISVSFTESCRSKDRKVLYTGAERDVRAECGLLLSPVSGDVHACPFGGSVGDGVGIGGESADKKDEENELDQEKRVEYAVLDELEDFTDNLELDEEGAGGFTAKAIVQRDRVDEEALNFPYEDDFDNDVDALLEEGLCAPKKRRTEEKYGGDSDHPSDGETSVQPMMTKIKTVLKSRGRPPTEPLPDGWIMTFHNSGVPVYLHRESRVVTWSRPYFLGTGSIRKHDPPLSSIPCLHYKKMKDNEEREQSSDLTPSGDVSPVKPLSRSAELEFPLDEPDSMGADPGPPDEKDPLGAEAAPGALGQVKAKVEVCKDESVDLEEFRSYLEKRFDFEQVTVKKFRTWAERRQFNREMKRKQAESERPILPANQKLITLSVQDAPTKKEFVINPNGKSEVCILHEYMQRVLKVRPVYNFFECENPSEPFGASVTIDGVTYGSGTASSKKLAKNKAARATLEILIPDFVKQTSEEKPKDSEELEYFNHISIEDSRVYELTSKAGLLSPYQILHECLKRNHGMGDTSIKFEVVPGKNQKSEYVMACGKHTVRGWCKNKRVGKQLASQKILQLLHPHVKNWGSLLRMYGRESSKMVKQETSDKSVIELQQYAKKNKPNLHILSKLQEEMKRLAEEREETRKKPKMSIVASAQPGGEPLCTVDV
binds: all assays above
